PubChem BioAssay AID493246 | Drosophila RNAi Screening Center, 2011

Assay: 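Identify essential fly genes by loss of cell viability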 (primary screen)
Cell system: Drosophila Kc and S2R+ cells
Knock-down reagent: long dsRNA against Drosophila genes
Detection: 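Raw, unnormalised count of remaining cells in each well; per-plate z-scores of cell number underlie the calls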
Scale: Kc cell number and S2R+ cell number: higher = more cells remaining
Call rule: 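Active when the per-plate z-score of cell number is 3 or more in the direction of fewer cells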
The screen tested about 21,000 reagents; this is an unselected part of those that have a named target and a result. Of all reagents, 429 (2%) were called active. 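Values are raw and not normalised between plates; calls rest on per-plate z-scores that were not deposited.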 Unmarked entries are inactive. A plus sign joins genes that one reagent is predicted to hit. No sequences are given here. Not given: the amount of reagent, the time to read-out.

no.	Target gene	dsRNA	Kc cell number, rep 1	Kc cell number, rep 2	S2R+ cell number, rep 1	S2R+ cell number, rep 2
1	Mtap	DRSC06890	1.36e6	1.43e6	9.17e5	8.15e5
2	Picot	DRSC07508	1.67e6	1.53e6	1.09e6	1.14e6
3	Mst84Dc	DRSC12599	1.63e6	1.73e6	1.22e6	1.37e6
4	CG16775	DRSC10225	1.43e6	1.77e6	1.49e6	1.55e6
5	ArgRS	DRSC20138	1.65e6	1.68e6	1.08e6	1.24e6
6	CG16978	DRSC02553	1.61e6	1.64e6	1.31e6	1.47e6
7	sncRNA:430e + His2A:CG33859 + His2A:CG33817 + 37 more	DRSC21264	1.54e6	1.52e6	8.97e5	9.82e5
8	CG17660	DRSC00513	1.56e6	1.48e6	8.13e5	8.74e5
9	CG1092	DRSC12151	1.52e6	1.56e6	1.31e6	1.38e6
10	Spn42Dc	DRSC05010	1.67e6	1.64e6	1.35e6	1.52e6
11	CG31717	DRSC01121	1.50e6	1.56e6	1.05e6	1.16e6
12	CG10064	DRSC09689	1.49e6	1.32e6	1.26e6	1.25e6
13	Karl	DRSC19883	5.50e5		7.70e5	
14	RpS14a	DRSC18710	8.38e5 (active)	9.48e5	7.15e5	8.62e5
15	CG3491	DRSC01934	1.54e6	1.68e6	9.54e5	1.11e6
16	CG32548	DRSC19627	1.57e6	1.56e6	1.15e6	1.31e6
17	CG32548	DRSC19982	1.69e6	1.71e6	1.11e6	1.20e6
18	CG3568	DRSC18312	1.54e6	1.63e6	1.09e6	1.22e6
19	CG15143	DRSC02444	1.50e6	1.58e6	1.21e6	1.38e6
20	CG6766	DRSC02991	1.50e6	1.55e6	1.02e6	1.14e6
21	Cisd2	DRSC14904	1.69e6	1.74e6	1.03e6	1.23e6
22	upd1	DRSC20358	1.51e6	1.54e6	1.14e6	1.18e6
23	Nepl3	DRSC02681	1.27e6	1.37e6	5.23e5	7.56e5
24	Girdin	DRSC08292	1.47e6	1.46e6	1.12e6	1.26e6

Records listed above marked active:
Target gene	dsRNA	Kc cell number, rep 1	Kc cell number, rep 2	S2R+ cell number, rep 1	S2R+ cell number, rep 2
RpS14a	DRSC18710	8.38e5 (active)	9.48e5	7.15e5	8.62e5

Continued.
no.	Target gene	dsRNA	Kc cell number, rep 1	Kc cell number, rep 2	S2R+ cell number, rep 1	S2R+ cell number, rep 2
25	CG11231 (retired record)	DRSC17207	1.56e6	1.52e6	1.12e6	1.24e6
26	CG14221	DRSC19578	1.52e6	1.48e6	1.18e6	1.27e6
27	Ser	DRSC16856	1.47e6	1.48e6	1.04e6	1.10e6
28	flip	DRSC12326	1.32e6	1.37e6	1.28e6	1.28e6
29	CG13707	DRSC08316	1.45e6	1.32e6	1.18e6	1.15e6
30	E(bx)	DRSC08172	1.37e6	1.36e6	1.01e6	1.35e6
31	E(bx)	DRSC08509	1.65e6	1.67e6	9.91e5	1.46e6
32	E(bx)	DRSC08583	1.54e6	1.60e6	1.23e6	1.31e6
33	DNAlig4	DRSC19436	1.59e6	1.51e6	1.11e6	1.30e6
34	CG9951	DRSC11105	1.47e6	1.51e6	1.28e6	1.27e6
35	CG3349	DRSC10359	1.23e6	1.24e6	1.25e6	1.36e6
36	tpr	DRSC04468	1.31e6	1.39e6	1.00e6	1.08e6
37	RpS15	DRSC07151	9.36e5 (active)	1.03e6	7.81e5	9.54e5
38	CG11438	DRSC11660	1.76e6	1.75e6	1.46e6	1.52e6
39	Diap2	DRSC07444	1.34e6	1.41e6	1.06e6	1.09e6
40	Kal1	DRSC15983	1.42e6	1.47e6	1.08e6	1.09e6
